Data as given in PubChem BioAssay AID1259405 (NCATS, 2018)

- Aim: 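Mouse-designed siRNAs used to find CHO productivity engineering targets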 (primary screen)
- Cell system: Chinese hamster CHO-K1 ovary cells with stable secreted eGFP expression
- Reagent: single siRNA against mouse genes, 0.8 pmol siRNA per well (2 µl of 400 nM stock)
- Duration: 3 days
- Read-out: 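Per-well intracellular GFP measured by laser scanning cytometry, plus viability from ATP luminescence, each relative to plate median of non-targeting control wells, in %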
- Reading the numbers: GFP, % of control: higher = more GFP per well, higher productivity; viability (ATP), % of control: higher = more viable cells (more ATP)
- Call rule: 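Called active when intracellular GFP, relative to negative control, is at or above 120%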
This is one part, drawn at random, of about 50,000 deposited reagents. About 4,000 of all reagents (8%) were called active. 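Mouse siRNA library applied to hamster cells; one well for each siRNA.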 Unmarked entries are inactive. The numbers tell different reagents against one gene apart.

The opening 4 records, ahead of the listing:
Gene | reagent | GFP, % of control | viability (ATP), % of control
Bbof1 | 1 | 45.3 | 29.5
Bbof1 | 2 | 61 | 41.6
Bbof1 | 3 | 75.9 | 97.1
Rap2c | 1 | 150 (active) | 94.4

Results, repeating the preview:
Gene | reagent | GFP, % of control | viability (ATP), % of control
Bbof1 | 1 | 45.3 | 29.5
Bbof1 | 2 | 61 | 41.6
Bbof1 | 3 | 75.9 | 97.1
Rap2c | 1 | 150 (active) | 94.4
Rap2c | 2 | 96 | 87.5
Rap2c | 3 | 120 (active) | 82.1
Zfp28 | 1 | 47.6 | 66.2
Zfp28 | 2 | 118 | 84.1
Mr1 | 1 | 12.6 | 28.3
Mr1 | 2 | 153 (active) | 104
Mr1 | 3 | 89.7 | 55.3
Or6c66 | 1 | 83.4 | 106
Or6c66 | 2 | 66.4 | 78.2
Or6c66 | 3 | 102 | 79
Abca8b | 1 | 94.1 | 76.7
Abca8b | 2 | 57.4 | 78.9
Abca8b | 3 | 75.9 | 82.1
Sar1b | 1 | 85.7 | 58.5
Sar1b | 2 | 86.1 | 79.2
Sar1b | 3 | 48.4 | 59
Rpp14 | 1 | 78.5 | 52.1
Rpp14 | 2 | 69.3 | 57.6
Rpp14 | 3 | 39.7 | 61
Folr2 | 1 | 65.4 | 84.4
Folr2 | 2 | 47.9 | 73.7
Folr2 | 3 | 141 (active) | 62.8
Matcap1 | 1 | 80 | 115
Matcap1 | 2 | 69.3 | 79.9
Matcap1 | 3 | 92.8 | 88.6
Nptx1 | 1 | 111 | 112
Nptx1 | 2 | 68.8 | 83.3
Actr3b | 1 | 94.6 | 81.1
Actr3b | 2 | 82.9 | 107
Fbxo31 | 1 | 93.6 | 85.3
Fbxo31 | 2 | 104 | 50.3
Fbxo31 | 3 | 126 (active) | 98.5
Krtap5-5 | 1 | 109 | 60.5
Krtap5-5 | 2 | 77.2 | 65.1
Krtap5-5 | 3 | 80.2 | 70
Ppil3 | 1 | 107 | 68.6
Ppil3 | 2 | 77.8 | 79.4
Ppil3 | 3 | 65.3 | 31
Urb2 | 1 | 73.4 | 31.4
Urb2 | 2 | 59.4 | 80.1
Urb2 | 3 | 95.8 | 66.4
Or4c108 | 1 | 72.5 | 62.3
Or4c108 | 2 | 35 | 62.8
Or4c108 | 3 | 66.5 | 80.2
Or4k41 | 1 | 99.9 | 86.9
Or4k41 | 2 | 79.2 | 60.6
Or4k41 | 3 | 102 | 107
Obox3 | 1 | 115 | 85.7
Obox3 | 2 | 55.7 | 58.1
Obox3 | 3 | 79.9 | 37.3
Or2h2c | 1 | 69.2 | 69.3
Or2h2c | 2 | 72.9 | 84
Or2h2c | 3 | 86.8 | 113
